For one molecule, binding results are on record in doi:10.1101/2022.05.03.490446 (bioRxiv, 2022).

Amino acid sequences for entries named in this document (tags omitted).
UniProt P0A6F5, whole entry: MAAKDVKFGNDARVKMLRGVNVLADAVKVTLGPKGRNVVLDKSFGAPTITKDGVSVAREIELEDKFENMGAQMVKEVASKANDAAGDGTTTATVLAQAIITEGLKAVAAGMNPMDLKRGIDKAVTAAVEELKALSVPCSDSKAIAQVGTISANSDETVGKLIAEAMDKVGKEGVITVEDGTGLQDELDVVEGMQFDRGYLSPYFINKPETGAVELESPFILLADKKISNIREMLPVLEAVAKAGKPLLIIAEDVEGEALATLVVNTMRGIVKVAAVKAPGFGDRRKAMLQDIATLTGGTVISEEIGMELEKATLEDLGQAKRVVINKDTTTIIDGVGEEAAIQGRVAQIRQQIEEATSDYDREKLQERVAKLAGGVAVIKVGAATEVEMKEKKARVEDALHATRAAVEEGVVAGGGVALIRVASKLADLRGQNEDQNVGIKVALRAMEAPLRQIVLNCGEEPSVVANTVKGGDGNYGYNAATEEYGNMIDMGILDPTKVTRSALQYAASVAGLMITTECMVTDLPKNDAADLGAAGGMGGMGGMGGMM

The target in the experiment is GroEL (E. coli, UniProt P0A6F5 1-548). The experiment is described as follows: SEC.

These are yes or no findings as the source states them, for the method shown. Some entries that bind do so weakly or less than the wild type.

B1: unfolded citrate synthase (protein, UniProt P00889 28-464)
chain: ASSTNLKDILADLIPKEQARIKTFRQQHGNTVVGQITVDMMYGGMRGMKGLVYETSVLDPDEGIRFRGYSIPECQKMLPKAKGGEEPLPEGLFWLLVTGQIPTEEQVSWLSKEWAKRAALPSHVVTMLDNFPTNLHPMSQLSAAITALNSESNFARAYAEGIHRTKYWELIYEDCMDLIAKLPCVAAKIYRNLYREGSSIGAIDSKLDWSHNFTNMLGYTDAQFTELMRLYLTIHSDHEGGNVSAHTSHLVGSALSDPYLSFAAAMNGLAGPLHGLANQEVLVWLTQLQKEVGKDVSDEKLRDYIWNTLNSGRVVPGYGHAVLRKTDPRYTCQREFALKHLPHDPMFKLVAQLYKIVPNVLLEQGKAKNPWPNVDAHSGVLLQYYGMTEMNYYTVLFGVSRALGVLAQLIWSRALGFPLERPKSMSTDGLIKLVDSK
Regarding B1, the binding entry was “binds”.
